# Experimental data: PubChem BioAssay AID1224827 (NIAID, 2016)
# Aim: 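Retest primary hits on a TNF reporter with six siRNAs per gene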 (follow-up of hits)
# Cells: RAW264.7 G9 mouse macrophage reporter clone
# Knock-down reagent: single siRNA against mouse genes, 100 nM siRNA
# Timing: siRNA for 2 days, then LPS about 16 h
# Challenge: bacterial lipopolysaccharide (LPS), 10 ng/ml, cells fixed after overnight (about 16 h) stimulation
# Measured: 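Imaged nuclear TNF reporter intensity, background removed, scaled per plate and to non-targeting control wells, as z-scores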
# Direction: TNF reporter z-score, mean: higher = stronger Tnf promoter reporter signal; gene median z, three same-vendor siRNAs: higher = stronger Tnf reporter signal for the gene
# Active means: 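An siRNA is called active when its mean z-score over replicates is at least +2 or at most -2; control wells get no call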
# Shown is an unselected part of about 3,800 reagents. In the full data, about 2,200 (57%) are marked active. 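Active means a strong reporter change in either direction; calls are per siRNA, not per gene; qiagen siRNAs gave weaker effects.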 Entries without a mark were called inactive. The numbers tell different reagents against one gene apart. Not all columns of the deposit are shown.
target,reagent,"TNF reporter z-score, mean","gene median z, three same-vendor siRNAs"
Bpifb9a,1,-0.508,-1.49
Bpifb9a,2,-1.51,-1.49
Bpifb9a,3,-1.97,-1.49
Crisp1,1,6.01 (active),-0.516
Crisp1,2,-0.516,-0.516
Crisp1,3,-3.63 (active),-0.516
Crisp1,4,2.58 (active),0.311
Crisp1,5,1.55,0.311
Crisp1,6,-2.73 (active),0.311
Eif3g,1,2.82 (active),0.428
Eif3g,2,0.428,0.428
Eif3g,3,-2.86 (active),0.428
Eif3g,4,-1.5,-1.82
Eif3g,5,-1.33,-1.82
Eif3g,6,-2.52 (active),-1.82
Gadd45g,1,-1.73,-3.07
Gadd45g,2,-3.61 (active),-3.07
Gadd45g,3,-4.23 (active),-3.07
Gadd45g,4,0.611,-0.423
Gadd45g,5,-0.372,-0.423
Gadd45g,6,-1.16,-0.423
Add2,1,-0.251,-3.06
Add2,2,-3.53 (active),-3.06
Add2,3,-3.74 (active),-3.06
Add2,4,1.93,-1.59
Add2,5,-1.59,-1.59
Add2,6,-3.21 (active),-1.59

4 entries from above, arranged by “TNF reporter z-score, mean”, high to low:
target,reagent,"TNF reporter z-score, mean","gene median z, three same-vendor siRNAs"
Crisp1,1,6.01 (active),-0.516
Bpifb9a,1,-0.508,-1.49
Bpifb9a,2,-1.51,-1.49
Bpifb9a,3,-1.97,-1.49
